Measured values from patent EP1071442B9 (priority 1998, dated 1999).

Test: general procedure: hybrid (solid and solution phase) peptide synthesis; 2-chlorotrityl chloride resin (super acid sensitive); HBTU/HOBT/DIEA (solid phase); HBTU/HOAT/EtPr2N (solution phase)

| Substance | crude HPLC purity (coupling step, 260 nm) [A%] | crude HPLC purity (coupling step, HPLC, Phenomenex Jupiter C5, 260 nm) [IA%] | step yield (coupling step, run 1) [%] | final HPLC purity (coupling step, 260 nm) [A%] | step yield (coupling step, run 2) [%] | step yield (coupling step, run 3) [%] | crude HPLC purity (whole synthesis, HPLC, Phenomenex Jupiter C5, 260 nm) [%] | final HPLC purity (whole synthesis, HPLC, Phenomenex Jupiter C5, 260 nm, run 1) [%] | crude yield (whole synthesis, run 1) [%] | isolated yield (whole synthesis, run 1) [%] | crude yield (whole synthesis, run 2) [%] | isolated yield (whole synthesis, run 2) [%] |
| --- | --- | --- | --- | --- | --- | --- | --- | --- | --- | --- | --- | --- |
| PEPTIDE1{[Fmoc].[Asp(tBu)].[Lys(Boc)].[Trp(Boc)].A.[Ser(tBu)].L.[Trp(Boc)].[Asn(trt)].[Trp(Boc)].F.[am]}$$$$V2.0 | 93 | 87. | 100 | – | – | – | – | – | – | – | – | – |
| PEPTIDE1{[Fmoc].[Glu(tBu)].[Lys(Boc)].[Asn(trt)].[Glu(tBu)].[Gln(trt)].[Glu(tBu)].L.L.[Glu(tBu)].L.[Asp(tBu)].[Lys(Boc)].[Trp(Boc)].A.[Ser(tBu)].L.[Trp(Boc)].[Asn(trt)].[Trp(Boc)].F.[am]}$$$$V2.0 | – | – | 90 | 95.5 | 84.3 | 85 | – | – | – | – | – | – |
| PEPTIDE1{[Fmoc].[Glu(tBu)].[Lys(Boc)].[Asn(trt)].[Glu(tBu)].[Gln(trt)].[Glu(tBu)].L.L.[Glu(tBu)].L}$$$$V2.0 | – | – | – | – | – | – | 97 | 96 | 8 | 90 | 105 | 90.6 |

HELM strings list residues between dots; [ac] is acetyl, [am] amide, other brackets name non-standard units.
